The whole screen tested about 320,000 compounds, of which about 22,000 (6.9%) were called active. This list was built around the results that the source calls inconclusive (neither active nor inactive); the mix of calls is not that of the screen. Calls follow the shape of the dose curve; as a rule, active = well fitted inhibition curve with a large enough effect; inconclusive = small, poorly fitted or top-dose-only effect, or another doubt; inactive = no such curve, though single readings can be large or run the other way. Where the call is inconclusive, the potency comes from a doubtful curve fit.
Assay: Primary qHTS for delayed death inhibitors of the malarial parasite plastid, 96 hour incubation
Conditions: P. falciparum luciferase reporter growth; series mostly up to 28.7 µM; activity change, negative = inhibition: at the top concentration
In short: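 P. falciparum expressing integrated firefly luciferase grown in erythrocytes (2% hematocrit, 0.05% parasitemia final) with compounds for 96 hours at 37 C, 5% CO2. Growth inhibition read as loss of luminescence after adding luciferase detection reagent.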
With `Cc1ccc(OCC(=O)N2CCN(c3ccc([N+](=O)[O-])c(N4CCOCC4)c3)CC2)cc1` the Potency was inconclusive: 1.65 µM [inhibitor, full curve, poor fit].
With `COc1ccc(N=C2SC(CC(=O)Nc3ccccc3)C(=O)N2Cc2ccccn2)cc1` (stereo not drawn) the Potency was inconclusive: 11.7 µM [inhibitor, single point].
With `COc1ccc(C(=O)Nc2cc3c(cc2N2CCCCC2)n(C)c(=O)n3C)cc1OC` the Potency was inconclusive: 18.5 µM [inhibitor, single point].
With `O=C(CCC1CCN(Cc2ccccc2O)CC1)NC1CC1` the Potency was inconclusive: 0.0329 µM [inhibitor, full curve, poor fit].
For `Cc1ccc2[nH]c(=O)c(CN(Cc3ccc4c(c3)OCO4)Cc3nnnn3C3CCCC3)cc2c1`, the “activity change, negative = inhibition” value was inactive: -1.21%.
For `O=C(Cc1ccccc1)NNC(=S)NC(=O)c1cccs1`, the Potency was inconclusive: 18.5 µM [inhibitor, single point].
With `CCN(c1cccc(C)c1)S(=O)(=O)c1cc(CN2C(=O)c3cccnc3C2=O)ccc1OC` the “activity change, negative = inhibition” value was inactive: -6.92%.
For `Cc1cccc(C)c1OCC(=O)N(Cc1ccc(N(C)C)cc1)C1CCS(=O)(=O)C1` (stereo not drawn), the Potency was inconclusive: 5.22 µM [inhibitor, partial curve].
In the case of `CCOc1ccc(NC(=O)C2CCN(S(=O)(=O)c3cccs3)CC2)cc1`, the Potency is reported as inconclusive: 11.7 µM [inhibitor, single point].
With `O=C(O)c1ccc(S(=O)(=O)N(Cc2ccccc2)Cc2ccccc2)cc1` the “activity change, negative = inhibition” value was inactive: 41.6%.
In the case of `CCN1CCN(c2ccc(S(=O)(=O)N3CCOCC3)cc2NC(=O)/C=C/c2ccc(OC)cc2OC)CC1`, the Potency is reported as inconclusive: 16.5 µM [inhibitor, single point].
With `Cc1[nH]nc2c1C(C1CC=CCC1)C(C#N)=C(N)O2` (stereo not drawn) the Potency was inconclusive: 11.7 µM [inhibitor, single point].
With `O=S(=O)(NCc1c(Cl)cccc1Oc1ccccc1)c1ccc(F)cc1` the Potency was inconclusive: 18.5 µM [inhibitor, single point].
With `CCOc1ccc(CCNC(=O)C2CCN(S(=O)(=O)c3ccc(C)cc3)CC2)cc1OCC` the Potency was inconclusive: 11.7 µM [inhibitor, single point].
In the case of `CCOC(=O)N1CCN(CC(=O)c2ccc(O)cc2O)CC1`, the “activity change, negative = inhibition” value is reported as inactive: 34.3%.
For `CS(=O)(=O)N1CCc2cc(C(=O)Nc3cccc([N+](=O)[O-])c3)ccc21`, the Potency was inconclusive: 11.7 µM [inhibitor, single point].
With `Cn1c2ccccc2c2nn(-c3ccccc3)c(=O)cc21` the Potency was active: 10.4 µM.
For `Cc1ccccc1NC(=O)CSc1nc2ccccc2c2nc(CCn3cncc3C)nn12`, the “activity change, negative = inhibition” value was inactive: -4.49%.

Reference: PubChem BioAssay AID504834 (National Center for Advancing Translational Sciences (NCATS), 2011)
% is scaled to controls: 0 for no effect and ±100 for the full control effect; potency is read from the fitted curve at half-maximal effect.
